Measurements as given in article PMC12527946.
Results are given in words; binding and its absence hold for the method and conditions named. Binding calls can cover weak binding; strength is not graded here.

Target: VLDLR(28–797)Δ(751–779)-C-tag (VLDLR ectodomain) (human) (UniProt P98155)
Assay: ELISA; plate coated with 10 µg/ml VLDLR-ed; Clu or RAP in TBS-C pH 7.4, 2 mM CaCl2, 2% BSA, 0.05% Tween-20, 1 h at room temperature; background binding to BSA subtracted; one-site specific binding fit; both purified

Q: With “Clu mutant CC4 (from UniProt P10909 23-227; P10909 228-449)” as the substance, how does the binding read?
A: binds
